{"source": "PubChem BioAssay AID686938 | Drosophila RNAi Screening Center | 2013", "assay": "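Looking for CRAC channel components and the factors controlling them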 (primary screen)", "cells": "Drosophila S2R+ cells", "reagent": "long dsRNA against Drosophila genes, about 0.25 µg dsRNA per well, roughly 10,000 cells", "time to read-out": "5 days of knock-down before the calcium assay", "challenge": "thapsigargin (SERCA pump blocker) to empty calcium stores; entry signal taken 4 min after adding it", "measured": "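Duplicate raw fluo-4 intensities per well from a plate reader, at rest and four minutes after thapsigargin emptied calcium stores; entry-to-rest ratio filled for only some wells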", "direction": "calcium entry signal: higher = stronger calcium signal after store depletion; resting calcium signal: higher = higher resting calcium signal", "call rule": "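Hit if the duplicate-averaged plate z-score for entry over resting signal is under −3; wells with weak total dye signal (Fmax z < −2) or more than 5 off-targets removed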", "meaning of the calls": "active = strongly reduced calcium entry; inactive = no strong reduction", "note": "In all, the deposit lists about 23,000 reagents; this is an unselected part of those that have a named target and a result. In the full data, 75 (0.33%) were called active. 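Raw plate signals without normalisation; calls rest on plate z-scores that were not deposited; ratio present for only 364 wells.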 A number with no mark means an inactive call. No sequences are given here. Not stated in the record: the dose of the treatment."}
{"gene": "CG34025", "DRSC id": "DRSC08014", "calcium entry signal, replicate 1 (fluorescence units)": 4.80e7, "calcium entry signal, replicate 2 (fluorescence units)": 3.76e7, "resting calcium signal, replicate 1 (fluorescence units)": 2.69e7, "resting calcium signal, replicate 2 (fluorescence units)": 1.82e7}
{"gene": "CG34205", "DRSC id": "DRSC04149", "calcium entry signal, replicate 1 (fluorescence units)": 4.32e7, "calcium entry signal, replicate 2 (fluorescence units)": 5.67e7, "resting calcium signal, replicate 1 (fluorescence units)": 2.02e7, "resting calcium signal, replicate 2 (fluorescence units)": 2.44e7}
{"gene": "CG34205", "DRSC id": "DRSC22823", "calcium entry signal, replicate 1 (fluorescence units)": 3.11e7, "calcium entry signal, replicate 2 (fluorescence units)": 3.95e7, "resting calcium signal, replicate 1 (fluorescence units)": 1.51e7, "resting calcium signal, replicate 2 (fluorescence units)": 1.73e7}
{"gene": "plx (pollux)", "DRSC id": "DRSC12260", "calcium entry signal, replicate 1 (fluorescence units)": 4.57e7, "calcium entry signal, replicate 2 (fluorescence units)": 3.43e7, "resting calcium signal, replicate 1 (fluorescence units)": 2.17e7, "resting calcium signal, replicate 2 (fluorescence units)": 1.67e7}
{"gene": "plx (pollux)", "DRSC id": "DRSC12385", "calcium entry signal, replicate 1 (fluorescence units)": 4.30e7, "calcium entry signal, replicate 2 (fluorescence units)": 4.51e7, "resting calcium signal, replicate 1 (fluorescence units)": 2.19e7, "resting calcium signal, replicate 2 (fluorescence units)": 2.28e7}
{"gene": "plx (pollux)", "DRSC id": "DRSC22683", "calcium entry signal, replicate 1 (fluorescence units)": 2.56e7, "calcium entry signal, replicate 2 (fluorescence units)": 2.77e7, "resting calcium signal, replicate 1 (fluorescence units)": 1.38e7, "resting calcium signal, replicate 2 (fluorescence units)": 1.12e7}
{"gene": "Cyp313a4 (Cytochrome P450 313a4)", "DRSC id": "DRSC16627", "calcium entry signal, replicate 1 (fluorescence units)": 3.79e7, "calcium entry signal, replicate 2 (fluorescence units)": 4.06e7, "resting calcium signal, replicate 1 (fluorescence units)": 1.90e7, "resting calcium signal, replicate 2 (fluorescence units)": 2.03e7}
{"gene": "CG32987", "DRSC id": "DRSC22373", "calcium entry signal, replicate 1 (fluorescence units)": 3.81e7, "calcium entry signal, replicate 2 (fluorescence units)": 7.18e7, "resting calcium signal, replicate 1 (fluorescence units)": 1.73e7, "resting calcium signal, replicate 2 (fluorescence units)": 2.67e7}
{"gene": "CG31142", "DRSC id": "DRSC13647", "calcium entry signal, replicate 1 (fluorescence units)": 3.18e7, "calcium entry signal, replicate 2 (fluorescence units)": 3.61e7, "resting calcium signal, replicate 1 (fluorescence units)": 1.53e7, "resting calcium signal, replicate 2 (fluorescence units)": 1.86e7}
{"gene": "CG11368", "DRSC id": "DRSC17778", "calcium entry signal, replicate 1 (fluorescence units)": 3.22e7, "calcium entry signal, replicate 2 (fluorescence units)": 3.80e7, "resting calcium signal, replicate 1 (fluorescence units)": 1.60e7, "resting calcium signal, replicate 2 (fluorescence units)": 1.81e7}
{"gene": "Pten (Phosphatase and tensin homolog)", "DRSC id": "DRSC03402", "calcium entry signal, replicate 1 (fluorescence units)": 3.30e7, "calcium entry signal, replicate 2 (fluorescence units)": 3.52e7, "resting calcium signal, replicate 1 (fluorescence units)": 1.35e7, "resting calcium signal, replicate 2 (fluorescence units)": 1.55e7}
{"gene": "CG12012", "DRSC id": "DRSC08220", "calcium entry signal, replicate 1 (fluorescence units)": 2.85e7, "calcium entry signal, replicate 2 (fluorescence units)": 3.78e7, "resting calcium signal, replicate 1 (fluorescence units)": 1.44e7, "resting calcium signal, replicate 2 (fluorescence units)": 1.69e7}
{"gene": "CG14115", "DRSC id": "DRSC10118", "calcium entry signal, replicate 1 (fluorescence units)": 2.85e7, "calcium entry signal, replicate 2 (fluorescence units)": 4.21e7, "resting calcium signal, replicate 1 (fluorescence units)": 1.45e7, "resting calcium signal, replicate 2 (fluorescence units)": 1.83e7}
{"gene": "Pngl (PNGase-like)", "DRSC id": "DRSC04914", "calcium entry signal, replicate 1 (fluorescence units)": 4.25e7, "calcium entry signal, replicate 2 (fluorescence units)": 4.20e7, "resting calcium signal, replicate 1 (fluorescence units)": 2.08e7, "resting calcium signal, replicate 2 (fluorescence units)": 1.95e7}
{"gene": "Pld3 (Phospholipase D family member 3)", "DRSC id": "DRSC03167", "calcium entry signal, replicate 1 (fluorescence units)": 3.14e7, "resting calcium signal, replicate 1 (fluorescence units)": 1.60e7}
{"gene": "GstT4 (Glutathione S transferase T4)", "DRSC id": "DRSC19757", "calcium entry signal, replicate 1 (fluorescence units)": 4.14e7, "calcium entry signal, replicate 2 (fluorescence units)": 3.94e7, "resting calcium signal, replicate 1 (fluorescence units)": 1.85e7, "resting calcium signal, replicate 2 (fluorescence units)": 1.80e7}
{"gene": "ro (rough)", "DRSC id": "DRSC17046", "calcium entry signal, replicate 1 (fluorescence units)": 4.00e7, "calcium entry signal, replicate 2 (fluorescence units)": 5.25e7, "resting calcium signal, replicate 1 (fluorescence units)": 2.03e7, "resting calcium signal, replicate 2 (fluorescence units)": 2.11e7}
{"gene": "alpha-Catr (alpha-catenin related)", "DRSC id": "DRSC04669", "calcium entry signal, replicate 1 (fluorescence units)": 3.94e7, "calcium entry signal, replicate 2 (fluorescence units)": 3.92e7, "resting calcium signal, replicate 1 (fluorescence units)": 2.02e7, "resting calcium signal, replicate 2 (fluorescence units)": 1.87e7}
{"gene": "sm (smooth)", "DRSC id": "DRSC05795", "calcium entry signal, replicate 1 (fluorescence units)": 2.35e7, "calcium entry signal, replicate 2 (fluorescence units)": 4.26e7, "resting calcium signal, replicate 1 (fluorescence units)": 1.22e7, "resting calcium signal, replicate 2 (fluorescence units)": 1.78e7}
{"gene": "sm (smooth)", "DRSC id": "DRSC07686", "calcium entry signal, replicate 1 (fluorescence units)": 3.25e7, "calcium entry signal, replicate 2 (fluorescence units)": 2.82e7, "resting calcium signal, replicate 1 (fluorescence units)": 1.53e7, "resting calcium signal, replicate 2 (fluorescence units)": 1.44e7}
{"gene": "CG11756", "DRSC id": "DRSC19424", "calcium entry signal, replicate 1 (fluorescence units)": 3.43e7, "calcium entry signal, replicate 2 (fluorescence units)": 3.69e7, "resting calcium signal, replicate 1 (fluorescence units)": 1.66e7, "resting calcium signal, replicate 2 (fluorescence units)": 1.69e7}

2 neighbouring entries already listed, quoted:
{"gene": "sm (smooth)", "DRSC id": "DRSC05795", "calcium entry signal, replicate 1 (fluorescence units)": 2.35e7, "calcium entry signal, replicate 2 (fluorescence units)": 4.26e7, "resting calcium signal, replicate 1 (fluorescence units)": 1.22e7, "resting calcium signal, replicate 2 (fluorescence units)": 1.78e7}
{"gene": "sm (smooth)", "DRSC id": "DRSC07686", "calcium entry signal, replicate 1 (fluorescence units)": 3.25e7, "calcium entry signal, replicate 2 (fluorescence units)": 2.82e7, "resting calcium signal, replicate 1 (fluorescence units)": 1.53e7, "resting calcium signal, replicate 2 (fluorescence units)": 1.44e7}
